Results on 1 substance are retold here after publication PMC10179296.

The chains behind the UniProt entries cited, without tags or fusion partners. Residues count along the entry.
UniProt Q80YX1, residues 23-2110: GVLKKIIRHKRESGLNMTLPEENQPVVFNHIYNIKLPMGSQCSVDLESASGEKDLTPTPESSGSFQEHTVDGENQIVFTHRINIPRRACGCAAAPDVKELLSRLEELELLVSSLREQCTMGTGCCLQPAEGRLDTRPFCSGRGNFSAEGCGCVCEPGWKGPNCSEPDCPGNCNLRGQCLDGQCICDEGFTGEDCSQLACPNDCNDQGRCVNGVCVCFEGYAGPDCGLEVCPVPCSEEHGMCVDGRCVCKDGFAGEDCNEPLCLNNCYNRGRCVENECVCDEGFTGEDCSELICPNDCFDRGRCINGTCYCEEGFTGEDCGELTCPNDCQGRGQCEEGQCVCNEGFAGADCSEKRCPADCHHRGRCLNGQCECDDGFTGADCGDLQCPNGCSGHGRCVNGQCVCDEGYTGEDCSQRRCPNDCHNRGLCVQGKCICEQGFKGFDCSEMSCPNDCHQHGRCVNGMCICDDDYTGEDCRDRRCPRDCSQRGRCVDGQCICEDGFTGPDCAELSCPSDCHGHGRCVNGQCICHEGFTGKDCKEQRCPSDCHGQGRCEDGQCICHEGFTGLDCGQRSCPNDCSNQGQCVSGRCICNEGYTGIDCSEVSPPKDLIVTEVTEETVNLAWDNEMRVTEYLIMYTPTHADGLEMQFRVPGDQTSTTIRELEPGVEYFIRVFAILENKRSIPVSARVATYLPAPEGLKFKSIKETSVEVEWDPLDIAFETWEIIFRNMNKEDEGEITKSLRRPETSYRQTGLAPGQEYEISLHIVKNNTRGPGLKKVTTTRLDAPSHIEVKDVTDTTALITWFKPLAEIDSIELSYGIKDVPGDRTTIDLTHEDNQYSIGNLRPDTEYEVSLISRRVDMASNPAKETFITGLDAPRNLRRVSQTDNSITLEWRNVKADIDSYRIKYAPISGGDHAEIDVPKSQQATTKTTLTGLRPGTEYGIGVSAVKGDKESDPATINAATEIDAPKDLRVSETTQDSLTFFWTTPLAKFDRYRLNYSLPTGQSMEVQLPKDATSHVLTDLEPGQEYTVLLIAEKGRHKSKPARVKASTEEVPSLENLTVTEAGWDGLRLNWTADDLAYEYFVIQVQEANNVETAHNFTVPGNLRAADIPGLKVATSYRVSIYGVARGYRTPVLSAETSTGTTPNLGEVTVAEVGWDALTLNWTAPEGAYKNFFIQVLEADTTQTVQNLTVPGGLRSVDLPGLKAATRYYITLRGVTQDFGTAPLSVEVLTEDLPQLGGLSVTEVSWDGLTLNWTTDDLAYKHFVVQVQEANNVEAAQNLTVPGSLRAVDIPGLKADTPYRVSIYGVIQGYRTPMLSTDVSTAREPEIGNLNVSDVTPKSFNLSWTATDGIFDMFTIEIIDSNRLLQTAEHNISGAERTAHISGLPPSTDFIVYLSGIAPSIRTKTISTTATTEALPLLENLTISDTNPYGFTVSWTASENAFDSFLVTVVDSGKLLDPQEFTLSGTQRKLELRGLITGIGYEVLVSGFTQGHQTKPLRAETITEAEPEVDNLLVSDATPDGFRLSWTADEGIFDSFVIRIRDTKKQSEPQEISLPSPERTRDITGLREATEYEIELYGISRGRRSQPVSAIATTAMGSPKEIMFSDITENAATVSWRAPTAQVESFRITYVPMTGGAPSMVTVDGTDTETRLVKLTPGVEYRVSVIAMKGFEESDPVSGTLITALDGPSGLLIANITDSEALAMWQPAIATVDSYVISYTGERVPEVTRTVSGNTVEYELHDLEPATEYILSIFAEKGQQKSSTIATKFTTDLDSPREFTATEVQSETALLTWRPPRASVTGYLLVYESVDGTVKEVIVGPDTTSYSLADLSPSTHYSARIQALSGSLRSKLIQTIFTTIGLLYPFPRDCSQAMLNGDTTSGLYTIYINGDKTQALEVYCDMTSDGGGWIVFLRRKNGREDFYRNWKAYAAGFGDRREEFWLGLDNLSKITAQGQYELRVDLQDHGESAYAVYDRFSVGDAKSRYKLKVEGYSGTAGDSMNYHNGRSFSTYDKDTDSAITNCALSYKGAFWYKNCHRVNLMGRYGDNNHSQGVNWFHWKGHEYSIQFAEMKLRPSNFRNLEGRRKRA
UniProt P10148, residues 24-148: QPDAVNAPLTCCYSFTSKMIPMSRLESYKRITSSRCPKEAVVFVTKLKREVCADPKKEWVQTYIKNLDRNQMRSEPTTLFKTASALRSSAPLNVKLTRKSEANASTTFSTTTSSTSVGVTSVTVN

These are yes or no findings as the source states them, for the method shown. Some results given as binding are weak or reduced against the parent protein; the word gives no strength.

In assay [1] the target is Murine strep-tagged tenascin-C (murine) (UniProt Q80YX1). Kind of assay: condition: only TNC pre-incubated with a 100x molar excess of heparin; negative staining transmission electron microscopy; as a2, but TNC pre-incubated with molar excesses of heparin (TNC:heparin = 1:0.1, 1:1, 1:10, 1:100) for 1 h at 37 °C; both purified.
For assay [2] the target is unchanged. Kind of assay: negative staining transmission electron microscopy; TNC (20 nmol/L) incubated with a 3 molar excess of CCL2 labelled with 5 nm colloidal gold, 1 h at 37 °C in TBS pH 7.4; gold particles counted along the TNC monomer or hexamer; both purified.

As for “Mouse CCL2 (from UniProt P10148 24-148) (ligand)”, the figures for the binding result in assay [1] and in assay [2] were “no binding” and “binds”, respectively.
